Measured values from the supplement of paper PMC10849652.
Some of the results follow.

Amino acid sequences for entries named in this document (tags omitted). A change or cut given only in a name is not applied to a line headed by its entry.
UniProt Q9Y6M0: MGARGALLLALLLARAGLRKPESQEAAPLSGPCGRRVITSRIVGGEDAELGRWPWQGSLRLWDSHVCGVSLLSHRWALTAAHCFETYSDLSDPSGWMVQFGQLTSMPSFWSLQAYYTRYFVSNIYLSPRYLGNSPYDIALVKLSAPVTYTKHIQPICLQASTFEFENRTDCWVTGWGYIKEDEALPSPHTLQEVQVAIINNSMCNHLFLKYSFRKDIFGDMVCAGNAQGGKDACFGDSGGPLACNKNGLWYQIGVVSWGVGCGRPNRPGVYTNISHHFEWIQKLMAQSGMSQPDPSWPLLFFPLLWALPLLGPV
UniProt P49720: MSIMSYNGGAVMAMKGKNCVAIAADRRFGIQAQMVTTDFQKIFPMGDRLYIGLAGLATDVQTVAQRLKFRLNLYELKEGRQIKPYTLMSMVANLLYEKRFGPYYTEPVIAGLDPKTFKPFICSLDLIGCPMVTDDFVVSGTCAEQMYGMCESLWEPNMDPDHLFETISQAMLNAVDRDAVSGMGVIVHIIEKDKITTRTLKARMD
UniProt Q9UNM6: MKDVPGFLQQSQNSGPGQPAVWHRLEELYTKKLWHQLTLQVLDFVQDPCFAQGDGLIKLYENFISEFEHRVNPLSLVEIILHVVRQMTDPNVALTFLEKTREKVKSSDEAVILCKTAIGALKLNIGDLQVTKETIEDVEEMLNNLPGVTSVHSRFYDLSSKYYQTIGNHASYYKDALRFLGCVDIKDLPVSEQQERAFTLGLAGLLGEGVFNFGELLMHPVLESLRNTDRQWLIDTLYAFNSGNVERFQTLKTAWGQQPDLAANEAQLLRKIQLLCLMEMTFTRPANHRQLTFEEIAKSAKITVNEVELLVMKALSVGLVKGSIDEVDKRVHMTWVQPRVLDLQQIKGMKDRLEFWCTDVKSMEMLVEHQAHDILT
UniProt Q16651: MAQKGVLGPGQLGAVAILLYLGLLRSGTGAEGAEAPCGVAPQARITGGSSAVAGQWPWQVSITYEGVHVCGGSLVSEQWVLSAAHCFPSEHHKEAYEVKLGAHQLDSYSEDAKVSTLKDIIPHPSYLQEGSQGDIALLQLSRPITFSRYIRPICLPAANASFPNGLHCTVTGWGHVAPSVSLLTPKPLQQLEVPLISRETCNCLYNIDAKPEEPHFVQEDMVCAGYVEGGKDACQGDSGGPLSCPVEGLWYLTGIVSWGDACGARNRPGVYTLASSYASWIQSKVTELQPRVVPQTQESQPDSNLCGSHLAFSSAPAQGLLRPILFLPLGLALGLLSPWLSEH
UniProt Q05397, whole entry, looked up: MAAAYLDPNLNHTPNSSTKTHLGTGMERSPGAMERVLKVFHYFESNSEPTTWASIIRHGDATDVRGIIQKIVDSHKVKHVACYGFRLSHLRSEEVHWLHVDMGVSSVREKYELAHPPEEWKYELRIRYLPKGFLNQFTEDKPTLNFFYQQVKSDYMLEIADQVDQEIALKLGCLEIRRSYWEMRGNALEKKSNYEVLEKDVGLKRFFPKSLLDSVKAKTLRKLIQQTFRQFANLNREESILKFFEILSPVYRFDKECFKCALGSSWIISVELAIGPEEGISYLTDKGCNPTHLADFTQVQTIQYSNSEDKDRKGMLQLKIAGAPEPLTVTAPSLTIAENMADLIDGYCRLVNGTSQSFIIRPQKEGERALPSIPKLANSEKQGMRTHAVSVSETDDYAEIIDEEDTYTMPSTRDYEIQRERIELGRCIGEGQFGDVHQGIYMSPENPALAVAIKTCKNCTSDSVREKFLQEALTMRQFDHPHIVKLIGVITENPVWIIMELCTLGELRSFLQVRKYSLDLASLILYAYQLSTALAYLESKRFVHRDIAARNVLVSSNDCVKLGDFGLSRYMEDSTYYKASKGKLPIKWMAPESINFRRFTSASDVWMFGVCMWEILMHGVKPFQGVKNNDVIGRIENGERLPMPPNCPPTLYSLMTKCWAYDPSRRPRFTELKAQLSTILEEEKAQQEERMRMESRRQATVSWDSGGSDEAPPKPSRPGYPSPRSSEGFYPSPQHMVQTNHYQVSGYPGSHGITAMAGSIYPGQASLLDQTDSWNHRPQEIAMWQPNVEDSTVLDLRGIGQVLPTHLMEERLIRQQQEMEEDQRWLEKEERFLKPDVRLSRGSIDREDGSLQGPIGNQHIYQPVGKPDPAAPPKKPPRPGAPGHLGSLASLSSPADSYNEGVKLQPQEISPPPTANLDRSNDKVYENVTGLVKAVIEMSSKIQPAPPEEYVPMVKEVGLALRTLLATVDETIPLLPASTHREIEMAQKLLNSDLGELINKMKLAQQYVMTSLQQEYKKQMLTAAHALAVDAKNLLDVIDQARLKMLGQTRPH
UniProt P61289: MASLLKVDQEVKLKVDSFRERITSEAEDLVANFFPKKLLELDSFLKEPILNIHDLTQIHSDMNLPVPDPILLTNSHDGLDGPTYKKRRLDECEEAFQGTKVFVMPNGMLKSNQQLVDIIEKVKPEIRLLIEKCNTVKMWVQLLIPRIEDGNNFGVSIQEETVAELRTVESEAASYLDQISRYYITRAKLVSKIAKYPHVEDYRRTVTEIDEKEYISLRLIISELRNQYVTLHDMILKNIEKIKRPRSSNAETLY
UniProt Q8TB72: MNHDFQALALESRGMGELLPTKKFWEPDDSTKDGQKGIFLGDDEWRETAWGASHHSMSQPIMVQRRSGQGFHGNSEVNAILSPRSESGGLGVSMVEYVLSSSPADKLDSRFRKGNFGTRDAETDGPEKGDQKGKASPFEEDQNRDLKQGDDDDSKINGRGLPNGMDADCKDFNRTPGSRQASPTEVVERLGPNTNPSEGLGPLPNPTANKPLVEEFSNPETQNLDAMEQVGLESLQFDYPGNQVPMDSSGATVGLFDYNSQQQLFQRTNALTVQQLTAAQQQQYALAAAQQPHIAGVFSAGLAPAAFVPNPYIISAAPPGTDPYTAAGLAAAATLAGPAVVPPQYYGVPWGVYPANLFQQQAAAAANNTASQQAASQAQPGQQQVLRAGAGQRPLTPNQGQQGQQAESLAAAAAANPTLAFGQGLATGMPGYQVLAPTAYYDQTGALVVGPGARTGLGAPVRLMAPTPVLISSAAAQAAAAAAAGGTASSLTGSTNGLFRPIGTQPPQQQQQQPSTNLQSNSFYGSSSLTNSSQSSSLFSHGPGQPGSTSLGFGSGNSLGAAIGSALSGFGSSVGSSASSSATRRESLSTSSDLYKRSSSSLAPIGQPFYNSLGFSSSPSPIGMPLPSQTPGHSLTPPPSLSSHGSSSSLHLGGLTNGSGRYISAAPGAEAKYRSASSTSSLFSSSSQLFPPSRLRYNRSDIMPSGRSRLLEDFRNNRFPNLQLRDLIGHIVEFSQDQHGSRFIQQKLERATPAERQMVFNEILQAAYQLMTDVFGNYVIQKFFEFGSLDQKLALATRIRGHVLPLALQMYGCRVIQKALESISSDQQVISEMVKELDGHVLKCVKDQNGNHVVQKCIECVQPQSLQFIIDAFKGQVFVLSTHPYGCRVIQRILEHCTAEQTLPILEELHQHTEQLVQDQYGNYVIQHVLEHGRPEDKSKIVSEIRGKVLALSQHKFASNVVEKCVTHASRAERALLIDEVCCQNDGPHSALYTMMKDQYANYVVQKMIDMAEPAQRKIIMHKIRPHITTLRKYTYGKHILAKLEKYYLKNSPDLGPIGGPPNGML
UniProt Q9BRX8: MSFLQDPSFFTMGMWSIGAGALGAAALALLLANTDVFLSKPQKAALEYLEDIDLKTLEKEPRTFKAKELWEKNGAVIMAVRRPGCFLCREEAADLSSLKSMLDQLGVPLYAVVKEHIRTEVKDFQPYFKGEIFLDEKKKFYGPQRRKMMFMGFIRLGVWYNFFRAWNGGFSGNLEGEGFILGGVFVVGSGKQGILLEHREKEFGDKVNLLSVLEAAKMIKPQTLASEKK
UniProt P20962: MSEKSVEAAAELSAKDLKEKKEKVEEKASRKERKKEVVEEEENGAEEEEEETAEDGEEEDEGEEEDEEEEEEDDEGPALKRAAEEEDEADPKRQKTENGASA
UniProt O95758: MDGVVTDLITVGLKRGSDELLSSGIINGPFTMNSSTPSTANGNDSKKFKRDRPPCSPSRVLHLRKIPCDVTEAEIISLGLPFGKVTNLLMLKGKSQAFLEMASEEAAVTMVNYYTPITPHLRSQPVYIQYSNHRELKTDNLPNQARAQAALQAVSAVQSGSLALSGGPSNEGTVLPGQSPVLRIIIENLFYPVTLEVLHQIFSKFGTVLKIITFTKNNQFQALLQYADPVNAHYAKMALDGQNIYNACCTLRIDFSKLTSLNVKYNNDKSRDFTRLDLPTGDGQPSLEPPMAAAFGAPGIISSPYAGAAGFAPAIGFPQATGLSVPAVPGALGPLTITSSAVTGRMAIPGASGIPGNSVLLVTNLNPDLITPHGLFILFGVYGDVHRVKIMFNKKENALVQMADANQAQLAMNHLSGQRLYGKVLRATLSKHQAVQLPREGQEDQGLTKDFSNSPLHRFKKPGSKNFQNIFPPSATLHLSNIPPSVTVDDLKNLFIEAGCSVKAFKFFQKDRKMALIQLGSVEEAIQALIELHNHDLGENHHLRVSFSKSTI
UniProt Q9ULL5: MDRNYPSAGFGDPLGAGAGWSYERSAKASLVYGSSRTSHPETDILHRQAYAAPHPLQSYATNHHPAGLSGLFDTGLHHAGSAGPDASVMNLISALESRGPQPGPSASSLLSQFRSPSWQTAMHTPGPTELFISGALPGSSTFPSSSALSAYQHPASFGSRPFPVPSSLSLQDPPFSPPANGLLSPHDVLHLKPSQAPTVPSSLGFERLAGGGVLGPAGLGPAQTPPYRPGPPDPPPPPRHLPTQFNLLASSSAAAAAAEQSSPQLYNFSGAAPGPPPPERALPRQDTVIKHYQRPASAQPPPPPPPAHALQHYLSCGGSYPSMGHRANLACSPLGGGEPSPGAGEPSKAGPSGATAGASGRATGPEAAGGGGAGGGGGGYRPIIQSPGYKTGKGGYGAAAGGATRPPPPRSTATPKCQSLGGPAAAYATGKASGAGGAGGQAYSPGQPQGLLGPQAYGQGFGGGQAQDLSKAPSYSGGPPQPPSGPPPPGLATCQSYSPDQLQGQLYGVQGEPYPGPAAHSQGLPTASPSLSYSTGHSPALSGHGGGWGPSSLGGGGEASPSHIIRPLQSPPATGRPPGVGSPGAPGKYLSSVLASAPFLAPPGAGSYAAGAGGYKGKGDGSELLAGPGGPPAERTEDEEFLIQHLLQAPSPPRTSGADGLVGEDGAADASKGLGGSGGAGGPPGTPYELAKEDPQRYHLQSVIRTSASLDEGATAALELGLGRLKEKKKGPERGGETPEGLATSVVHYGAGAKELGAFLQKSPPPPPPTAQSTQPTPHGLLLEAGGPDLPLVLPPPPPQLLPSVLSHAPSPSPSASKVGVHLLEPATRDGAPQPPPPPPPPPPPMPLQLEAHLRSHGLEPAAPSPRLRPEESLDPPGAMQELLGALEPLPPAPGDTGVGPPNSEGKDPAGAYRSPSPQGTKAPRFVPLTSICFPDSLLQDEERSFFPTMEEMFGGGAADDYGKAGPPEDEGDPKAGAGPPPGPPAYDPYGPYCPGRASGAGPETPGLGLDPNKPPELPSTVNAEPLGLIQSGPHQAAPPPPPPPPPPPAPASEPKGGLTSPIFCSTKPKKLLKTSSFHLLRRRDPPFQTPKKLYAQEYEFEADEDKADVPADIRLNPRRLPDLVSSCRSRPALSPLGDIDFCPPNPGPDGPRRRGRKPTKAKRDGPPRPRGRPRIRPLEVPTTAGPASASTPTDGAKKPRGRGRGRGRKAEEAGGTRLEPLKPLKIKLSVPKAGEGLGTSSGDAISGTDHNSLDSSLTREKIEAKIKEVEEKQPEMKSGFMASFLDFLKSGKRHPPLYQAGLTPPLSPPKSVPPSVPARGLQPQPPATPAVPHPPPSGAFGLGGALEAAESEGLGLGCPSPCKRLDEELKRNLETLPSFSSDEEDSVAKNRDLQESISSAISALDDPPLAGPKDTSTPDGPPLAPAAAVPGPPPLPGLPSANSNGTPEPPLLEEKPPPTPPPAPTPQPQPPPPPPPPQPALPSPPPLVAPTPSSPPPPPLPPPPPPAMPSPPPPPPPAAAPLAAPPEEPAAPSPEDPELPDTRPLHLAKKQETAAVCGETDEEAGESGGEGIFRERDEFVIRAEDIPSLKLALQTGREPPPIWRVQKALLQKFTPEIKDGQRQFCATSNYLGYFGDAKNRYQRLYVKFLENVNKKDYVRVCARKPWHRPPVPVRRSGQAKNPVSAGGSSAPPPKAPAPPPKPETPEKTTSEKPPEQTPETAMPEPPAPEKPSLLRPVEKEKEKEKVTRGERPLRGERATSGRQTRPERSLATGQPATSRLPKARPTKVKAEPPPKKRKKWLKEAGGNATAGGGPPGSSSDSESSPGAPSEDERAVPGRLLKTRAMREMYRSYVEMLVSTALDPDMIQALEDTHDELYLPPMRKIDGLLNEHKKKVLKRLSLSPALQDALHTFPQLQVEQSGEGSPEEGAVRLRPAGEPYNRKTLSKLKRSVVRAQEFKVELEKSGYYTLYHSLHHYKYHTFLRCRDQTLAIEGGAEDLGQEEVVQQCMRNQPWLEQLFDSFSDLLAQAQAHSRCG

The targets below were run with C[C@H](C1=CC=C(C=C1)C(=O)NC2=C3C=CNC3=NC=C2)N (assay: log2 fold change, soluble protein after heating vs DMSO (PISA); higher = thermal stabilisation; K562 lysate, 10 uM; active = over 0.2 and 3.5 SD of the protein, either way, in both replicates (recomputed)).
Outline: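 Thermal stability, expressed as log-two fold change relative to solvent controls, is given from duplicates. Crude K562 extract in PBS pH 7.4 with 1 mM MgCl2, at 1 mg/mL protein, was treated with 10 μM compound for 30 min and heated in aliquots for 3 min across 48°C-58°C. After pooling, adjustment to 0.5% NP-40 at 4°C and centrifugation at 21,000xg for 90 min, supernatant protein was measured by TMTpro 16plex LC-MS/MS with channel sums equalised.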

log2 fold change, inactive:
PTRH1 (UniProt Q86Y79) -0.009
PRSS21 (UniProt Q9Y6M0) 0.087
PSMB3 (UniProt P49720) -0.032
PTPA isoform 2 (UniProt Q15257) -0.099
PSMD13 (UniProt Q9UNM6) 0.008
PSMF1 (UniProt Q5QPM7) -0.104
PTPRF (UniProt P10586) 0.004
PTEN isoform 2 (UniProt P60484) -0.122
PRSS8 (UniProt Q16651) -0.013
PTK2 (UniProt Q05397) 0.007
PSME3 isoform 2 (UniProt P61289) -0.018
PSME2 (UniProt Q9UL46) -0.074
PUM2 (UniProt Q8TB72) 0.094
PRXL2A (UniProt Q9BRX8) 0.108
PSMB2, A0A087WVV1 -0.508
PRPH isoform 2 (UniProt P41219) 0.03
PTMS (UniProt P20962) 0.016
PTBP3 isoform 4 (UniProt O95758) -0.019
PTCD3 (UniProt Q96EY7) 0.036
PRR4 (UniProt Q16378) 0.291
PSMD4 (UniProt Q5VWC4) -0.023
PRR12 (UniProt Q9ULL5) -0.043
PRR14L (UniProt Q5THK1) 0.196

For reference, some entries already given.
log2 fold change, inactive:
PSMB2, A0A087WVV1 -0.508
PRPH isoform 2 (UniProt P41219) 0.03
